Laboratory results as given in patent US20230355813A1, “Theranostic Silicon-Fluoride Heteroaromatic Systems and Methods Thereof” (Fuzionaire Diagnostics, Inc., priority 2022, published 2023).
Not every detail of the peptide structures is certain; ends, links or a residue may be inferred.

test: FIG. 26
Text: Table printed on a drawing sheet, FIG. 26
The patent's description of the figure: FIG. 26 illustrates HSA binding assay results of HetSiFA compounds in accordance with an embodiment of the invention.
FIG. 26 illustrates human serum albumin (HSA) binding assay results of HetSiFA compounds in accordance with an embodiment. A standard curve can be first established using reference compounds (See, e.g., Valko, K. et al., J. Pharm. Sci. 2003, 92 (11), 2236-2248; Wurzer, A. J. et al., PSMA binding dual mode radiotracer and therapeutic. 2020, WO2020157177A1; the disclosures of which are herein incorporated by reference.) The HSA binding assay results include four HetSiFA theranostic compounds, FTX-164, FTX-165, FTX-168, and FTX-181 (structures shown in FIG. 26), and two therapeutics Lutathera and Lu-NeoB. […] Test condition of the HSA binding assay includes: Column: Chiralpak HSA (100×2.1 mm, 5 μm, Cat. No. HSA5LM-C0004), flow rate: 0.3 mL/min. Mobile phase: A—NH40Ac buffer (50 mM, pH=7), freshly prepared each day; B—isopropanol (HPLC grade); 0-3 min: isocratic 100% A, 0% B; 3-40 min: gradient to 80% A, 20% B; 40-60 min: isocratic 80% A, 20% B. Samples: 9 reference compounds, concentration 0.5 mg/mL in i-PrOH/NH4OAc (50 mM) pH=7, 50:50. All measurements of the retention time are done in triplicates for each sample).
First reader's note: HSA % is human serum albumin binding; the structures of the compounds are drawn beside the table on the same sheet.

Row | SMILES | HSA % [%]
1 | C[C@@H](O)[C@H](NC(=O)[C@@H]1CSSC[C@H](NC(=O)[C@@H](Cc2ccccc2)NC(=O)CNc2cc([Si](F)(C(C)(C)C)C(C)(C)C)n(CCOCCNC(=O)CCC(C(=O)O)N3CCN(CC(=O)O)CCN(CC(=O)O)CCN(CC(=O)O)CC3)n2)C(=O)N[C@@H](Cc2ccc(O)cc2)C(=O)N[C@H](Cc2c[nH]c3ccccc23)C(=O)N[C@@H](CCCCN)C(=O)N[C@@H]([C@@H](C)O)C(=O)N1)C(=O)O (stereo partly drawn) [FTX-165] | 91.91
2 | CC(C)CC(CC(C)C)NC(=O)[C@H](Cc1c[nH]cn1)NC(=O)CNC(=O)[C@@H](NC(=O)[C@H](C)NC(=O)[C@H](Cc1c[nH]c2ccccc12)NC(=O)[C@H](CCC(N)=O)NC(=O)[C@@H](Cc1ccccc1)NC(=O)COCC(=O)Nc1ccc(CNC(=O)CN2CCN(CC(=O)O)CCN(CC(=O)O)CCN(CC(=O)O)CC2)cc1)C(C)C [Lu-NeoB] | 81.25
3 | C[C@@H](O)[C@H](NC(=O)[C@@H]1CSSC[C@H](NC(=O)[C@@H](Cc2ccccc2)NC(=O)CN2CCN(CC(=O)O)CCN(CC(=O)O)CCN(CC(=O)O)CC2)C(=O)N[C@@H](Cc2ccc(O)cc2)C(=O)N[C@H](Cc2c[nH]c3ccccc23)C(=O)N[C@@H](CCCCN)C(=O)N[C@@H]([C@@H](C)O)C(=O)N1)C(=O)O [Lutathera] | 22.76
